PubChem BioAssay AID686938, Drosophila RNAi Screening Center – 2013
The deposit covers about 23,000 reagents; below is a random part of those that have a named target and a result. Of all reagents, 75 (0.33%) are marked active. 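Raw plate signals without normalisation; calls rest on plate z-scores that were not deposited; ratio present for only 364 wells.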 The numbers tell different reagents against one gene apart. The record does not give: the dose of the treatment.

Purpose: 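Knock-downs reducing store-operated calcium influx in Drosophila cells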 (primary screen)
Cells: Drosophila S2R+ cells
Reagent: long dsRNA against Drosophila genes, about 0.25 µg dsRNA per well, roughly 10,000 cells
Duration: 5 days of knock-down before the calcium assay
Conditions: thapsigargin (SERCA pump blocker) to empty calcium stores; entry signal taken 4 min after adding it
Measured: 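Per-well fluo-4 fluorescence in two replicates, unnormalised, measured in resting cells and 4 min after store depletion by the SERCA blocker thapsigargin; ratio of the two present in few wells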
Direction: calcium entry signal: higher = stronger calcium signal after store depletion; entry to resting ratio: higher = more calcium entry relative to resting level; resting calcium signal: higher = higher resting calcium signal
Active means: 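Hit if the duplicate-averaged plate z-score for entry over resting signal is under −3; wells with weak total dye signal (Fmax z < −2) or more than 5 off-targets removed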
Meaning of the calls: active = strongly reduced calcium entry; inactive = no strong reduction

gene knocked down | reagent | calcium entry signal, replicate 1 (fluorescence units) | calcium entry signal, replicate 2 (fluorescence units) | entry to resting ratio | resting calcium signal, replicate 1 (fluorescence units) | resting calcium signal, replicate 2 (fluorescence units) | outcome
CG9747 | 1 | 4.87e7 | 4.38e7 | – | 2.27e7 | 2.36e7 | inactive
ppk13 | 1 | 6.15e7 | 4.78e7 | – | 2.82e7 | 2.02e7 | inactive
CG32428 | 1 | 4.75e7 | 6.03e7 | – | 2.33e7 | 3.76e7 | inactive
CG32428 | 2 | 2.91e7 | 5.76e7 | – | 1.39e7 | 2.25e7 | inactive
CG6420 | 1 | 2.76e7 | 3.31e7 | – | 1.40e7 | 1.45e7 | inactive
CG30280 | 1 | 3.34e7 | 2.94e7 | – | 2.01e7 | 1.52e7 | inactive
CG5946 | 1 | 2.88e7 | 4.82e7 | – | 1.48e7 | 1.96e7 | inactive
Wdr82 | 1 | 4.90e7 | 5.88e7 | – | 2.26e7 | 2.41e7 | inactive
Wdr82 | 2 | 3.00e7 | 3.48e7 | – | 1.71e7 | 1.86e7 | inactive
CG5334 | 1 | 3.18e7 | 3.19e7 | – | 1.73e7 | 1.55e7 | inactive
CG5504 | 1 | 4.67e7 | – | – | 2.40e7 | – | inactive
CG16736 | 1 | 4.07e7 | 4.11e7 | – | 2.00e7 | 1.79e7 | inactive
CG7896 | 1 | 3.45e7 | 4.26e7 | – | 1.54e7 | 1.89e7 | inactive
CanB2 | 1 | 4.75e7 | 2.97e7 | – | 2.29e7 | 1.61e7 | inactive
CG13955 | 1 | 5.72e7 | 4.63e7 | – | 2.57e7 | 1.90e7 | inactive
Awh | 1 | 3.61e7 | 4.43e7 | – | 1.94e7 | 1.90e7 | inactive
TwdlL | 1 | 5.09e7 | 4.57e7 | – | 2.16e7 | 2.12e7 | inactive
Kaz1-ORFB | 1 | 3.16e7 | 4.46e7 | – | 1.72e7 | 2.08e7 | inactive
zda | 1 | 3.70e7 | 4.20e7 | – | 1.87e7 | 2.06e7 | inactive
CG1504 | 1 | 4.84e7 | 3.81e7 | – | 2.36e7 | 1.75e7 | inactive
CG10064 | 1 | 3.55e7 | 4.10e7 | – | 1.71e7 | 1.85e7 | inactive
CG42369 | 1 | 2.46e7 | 2.18e7 | – | 1.29e7 | 1.07e7 | inactive
eIF2D | 1 | 3.20e7 | 5.22e7 | – | 1.56e7 | 2.23e7 | inactive
ND-23 | 1 | 2.44e7 | 2.63e7 | – | 1.13e7 | 1.09e7 | inactive
larp | 1 | 3.52e7 | 5.40e7 | – | 1.83e7 | 2.37e7 | inactive
larp | 2 | 3.51e7 | 5.42e7 | – | 1.81e7 | 2.43e7 | inactive
larp | 3 | 2.39e7 | 4.37e7 | – | 1.22e7 | 2.01e7 | inactive
stum | 1 | 5.07e7 | 4.59e7 | – | 2.24e7 | 2.10e7 | inactive
stum | 2 | 4.64e7 | 4.10e7 | – | 1.95e7 | 1.78e7 | inactive
CG11626 | 1 | 3.98e7 | 4.69e7 | – | 4.99e7 | 2.06e7 | inactive
CG4914 | 1 | 3.72e7 | 5.39e7 | – | 1.75e7 | 2.17e7 | inactive
UQCR-14L | 1 | 3.39e7 | 5.43e7 | – | 1.73e7 | 2.38e7 | inactive
UQCR-14L | 2 | 4.28e7 | 3.71e7 | – | 2.23e7 | 1.48e7 | inactive
ppk31 | 1 | 3.15e7 | 3.97e7 | – | 1.63e7 | 1.84e7 | inactive
CG5776 | 1 | 3.80e7 | – | – | 1.83e7 | – | inactive
Dysb | 1 | 2.49e7 | 4.73e7 | – | 1.44e7 | 2.05e7 | inactive
CG13045 | 1 | 3.04e7 | 4.87e7 | – | 1.69e7 | 1.89e7 | inactive
TAF1C-like | 1 | 3.73e7 | – | – | 1.92e7 | – | inactive

Continued; the last 9 above are carried over.
gene knocked down | reagent | calcium entry signal, replicate 1 (fluorescence units) | calcium entry signal, replicate 2 (fluorescence units) | entry to resting ratio | resting calcium signal, replicate 1 (fluorescence units) | resting calcium signal, replicate 2 (fluorescence units) | outcome
CG11626 | 1 | 3.98e7 | 4.69e7 | – | 4.99e7 | 2.06e7 | inactive
CG4914 | 1 | 3.72e7 | 5.39e7 | – | 1.75e7 | 2.17e7 | inactive
UQCR-14L | 1 | 3.39e7 | 5.43e7 | – | 1.73e7 | 2.38e7 | inactive
UQCR-14L | 2 | 4.28e7 | 3.71e7 | – | 2.23e7 | 1.48e7 | inactive
ppk31 | 1 | 3.15e7 | 3.97e7 | – | 1.63e7 | 1.84e7 | inactive
CG5776 | 1 | 3.80e7 | – | – | 1.83e7 | – | inactive
Dysb | 1 | 2.49e7 | 4.73e7 | – | 1.44e7 | 2.05e7 | inactive
CG13045 | 1 | 3.04e7 | 4.87e7 | – | 1.69e7 | 1.89e7 | inactive
TAF1C-like | 1 | 3.73e7 | – | – | 1.92e7 | – | inactive
CG11334 | 1 | 4.54e7 | 4.76e7 | – | 2.36e7 | 2.10e7 | inactive
CG11334 | 2 | 3.21e7 | 3.58e7 | 2 | 1.59e7 | 1.50e7 | inactive
CG9752 | 1 | 4.31e7 | – | – | 2.16e7 | – | inactive
CG8401 | 1 | 3.34e7 | 3.19e7 | – | 1.55e7 | 1.63e7 | inactive
CG43288 | 1 | 5.43e7 | 3.83e7 | – | 2.41e7 | 1.73e7 | inactive
eRF3 | 1 | 3.51e7 | 2.56e7 | – | 1.82e7 | 1.47e7 | inactive
yellow-b | 1 | 4.96e7 | – | – | 2.48e7 | – | inactive
CG7548 | 1 | 2.92e7 | 3.71e7 | – | 1.41e7 | 1.72e7 | inactive
CG12783 | 1 | 2.14e7 | 2.34e7 | – | 1.11e7 | 3.31e7 | inactive
CG7130 | 1 | 2.95e7 | 6.08e7 | – | 1.41e7 | 2.62e7 | inactive
Sec20 | 1 | 4.63e7 | 3.09e7 | – | 2.23e7 | 1.64e7 | inactive
Cdc6 | 1 | 4.36e7 | 2.88e7 | – | 2.83e7 | 1.38e7 | inactive
CG17834 | 1 | 4.86e7 | – | – | 2.22e7 | – | inactive
AANATL2 | 1 | 3.91e7 | 4.06e7 | – | 1.91e7 | 1.97e7 | inactive
BBS1 | 1 | 6.39e7 | 3.52e7 | – | 3.15e7 | 1.76e7 | inactive
Cdk9 | 1 | 1.68e7 | 2.50e7 | – | 9.98e6 | 1.32e7 | inactive
Pus1 | 1 | 4.23e7 | 3.76e7 | – | 6.00e7 | 1.77e7 | inactive
CG13102 | 1 | 3.69e7 | 5.27e7 | – | 1.74e7 | 2.30e7 | inactive
CG15734 | 1 | 3.20e7 | 5.15e7 | – | 1.67e7 | 2.18e7 | inactive
Ufd4 | 1 | 3.44e7 | 4.18e7 | – | 1.86e7 | 1.92e7 | inactive
CG6041 | 1 | 3.76e7 | 4.47e7 | – | 1.86e7 | 2.02e7 | inactive
CG13693 | 1 | 3.94e7 | 4.12e7 | – | 1.67e7 | 1.63e7 | inactive
CG3216 | 1 | 4.31e7 | 5.05e7 | – | 2.07e7 | 2.17e7 | inactive
CG32161 | 1 | 2.16e7 | 3.97e7 | – | 1.10e7 | 1.80e7 | inactive
hng2 | 1 | 5.57e7 | 3.52e7 | – | 2.55e7 | 1.74e7 | inactive
geminin | 1 | 4.05e7 | 3.54e7 | – | 2.52e7 | 2.17e7 | inactive
CG8773 | 1 | 4.54e7 | 4.96e7 | – | 1.75e7 | 1.96e7 | inactive
RpL15 | 1 | 1.10e7 | 9.09e6 | – | 9.37e6 | 6.70e6 | inactive
CG6013 | 1 | 2.93e7 | 2.47e7 | – | 1.47e7 | 1.17e7 | inactive
CG17666 | 1 | 2.31e7 | 3.30e7 | – | 1.26e7 | 1.52e7 | inactive
CG13423 | 1 | 3.88e7 | 3.83e7 | – | 1.89e7 | 1.86e7 | inactive
scb | 1 | 4.30e7 | 4.16e7 | – | 2.03e7 | 1.82e7 | inactive
scb | 2 | 3.85e7 | 4.13e7 | – | 1.98e7 | 1.85e7 | inactive
Pldn | 1 | 1.90e7 | 2.44e7 | – | 1.11e7 | 1.15e7 | inactive
CG31717 | 1 | 3.33e7 | 4.90e7 | – | 1.73e7 | 2.38e7 | inactive
CG6962 | 1 | 1.73e7 | 1.94e7 | – | 9.97e6 | 1.13e7 | inactive
CG4374 | 1 | 3.37e7 | 4.73e7 | – | 1.85e7 | 1.97e7 | inactive
